According to PMC6949240:
These are yes or no findings as the source states them, for the method shown. Binding seen in cells or lysates may run through a third protein. A yes stands for co-enrichment or nearness to the bait. Other partners may have been found.

Chains of the proteins cited; added tags and fusions are not shown.
UniProt P67809: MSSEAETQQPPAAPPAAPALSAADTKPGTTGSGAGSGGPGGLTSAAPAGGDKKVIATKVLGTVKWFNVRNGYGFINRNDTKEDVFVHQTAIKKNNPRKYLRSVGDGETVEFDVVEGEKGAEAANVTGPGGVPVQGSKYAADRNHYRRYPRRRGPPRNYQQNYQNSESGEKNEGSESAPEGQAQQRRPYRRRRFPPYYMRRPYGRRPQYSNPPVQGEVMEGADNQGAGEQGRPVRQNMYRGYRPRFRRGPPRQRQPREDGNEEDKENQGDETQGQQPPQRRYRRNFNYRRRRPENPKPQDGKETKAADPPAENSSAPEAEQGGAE
UniProt P18887: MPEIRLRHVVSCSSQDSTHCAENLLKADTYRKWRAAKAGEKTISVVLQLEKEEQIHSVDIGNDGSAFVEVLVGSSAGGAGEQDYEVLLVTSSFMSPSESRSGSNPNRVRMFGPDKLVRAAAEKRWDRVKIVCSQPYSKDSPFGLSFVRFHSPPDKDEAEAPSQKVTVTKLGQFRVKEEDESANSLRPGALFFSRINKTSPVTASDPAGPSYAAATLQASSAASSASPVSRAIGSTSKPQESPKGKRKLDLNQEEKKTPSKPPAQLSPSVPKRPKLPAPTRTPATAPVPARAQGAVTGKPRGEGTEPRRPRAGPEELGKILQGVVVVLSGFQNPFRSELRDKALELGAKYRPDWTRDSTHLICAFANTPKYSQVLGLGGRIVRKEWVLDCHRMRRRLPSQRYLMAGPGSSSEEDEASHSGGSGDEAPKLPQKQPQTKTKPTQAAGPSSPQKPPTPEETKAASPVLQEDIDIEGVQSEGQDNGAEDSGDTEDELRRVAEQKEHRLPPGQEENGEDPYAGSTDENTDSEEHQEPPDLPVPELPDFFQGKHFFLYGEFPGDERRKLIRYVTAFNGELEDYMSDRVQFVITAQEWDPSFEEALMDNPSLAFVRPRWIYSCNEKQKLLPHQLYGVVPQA
UniProt P39748: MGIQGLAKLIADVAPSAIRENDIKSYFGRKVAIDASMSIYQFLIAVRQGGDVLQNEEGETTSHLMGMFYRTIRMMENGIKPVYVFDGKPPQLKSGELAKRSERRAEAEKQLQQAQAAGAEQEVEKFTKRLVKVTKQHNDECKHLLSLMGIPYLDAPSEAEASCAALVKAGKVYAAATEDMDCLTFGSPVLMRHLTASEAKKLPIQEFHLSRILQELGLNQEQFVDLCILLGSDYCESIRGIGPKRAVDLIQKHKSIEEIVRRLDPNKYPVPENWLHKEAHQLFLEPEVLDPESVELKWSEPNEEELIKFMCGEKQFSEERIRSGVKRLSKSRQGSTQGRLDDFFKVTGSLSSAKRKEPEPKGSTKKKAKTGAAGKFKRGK
UniProt P11940: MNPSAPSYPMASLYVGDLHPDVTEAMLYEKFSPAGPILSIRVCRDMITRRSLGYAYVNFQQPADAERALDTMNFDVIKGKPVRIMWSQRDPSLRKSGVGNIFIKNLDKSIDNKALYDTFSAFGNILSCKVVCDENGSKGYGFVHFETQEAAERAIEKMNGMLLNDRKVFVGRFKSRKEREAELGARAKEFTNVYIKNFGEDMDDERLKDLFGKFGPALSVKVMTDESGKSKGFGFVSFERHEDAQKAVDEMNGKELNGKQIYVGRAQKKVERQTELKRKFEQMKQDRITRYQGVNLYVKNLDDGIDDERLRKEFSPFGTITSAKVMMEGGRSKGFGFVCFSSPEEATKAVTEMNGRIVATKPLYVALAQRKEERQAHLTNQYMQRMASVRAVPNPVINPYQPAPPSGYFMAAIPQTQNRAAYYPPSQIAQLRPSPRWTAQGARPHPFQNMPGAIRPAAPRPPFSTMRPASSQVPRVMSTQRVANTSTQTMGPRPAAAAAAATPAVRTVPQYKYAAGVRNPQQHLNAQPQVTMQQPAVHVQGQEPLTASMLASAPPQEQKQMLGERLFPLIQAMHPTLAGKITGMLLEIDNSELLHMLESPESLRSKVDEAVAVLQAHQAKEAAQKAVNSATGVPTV
UniProt P06748: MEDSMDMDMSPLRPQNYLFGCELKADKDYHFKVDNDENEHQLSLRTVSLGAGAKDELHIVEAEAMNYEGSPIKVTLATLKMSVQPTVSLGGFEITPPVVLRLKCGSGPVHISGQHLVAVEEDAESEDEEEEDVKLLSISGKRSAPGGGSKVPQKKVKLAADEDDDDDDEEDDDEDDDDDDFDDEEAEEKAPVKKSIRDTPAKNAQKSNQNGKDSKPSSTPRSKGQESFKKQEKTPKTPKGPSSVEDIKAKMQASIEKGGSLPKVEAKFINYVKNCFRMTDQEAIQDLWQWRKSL

biological target: APE1 FLAG-tagged protein (apurinic/apyrimidinic endonuclease 1) (human) (UniProt P27695); assay: affinity purification with mass spectrometry; anti-FLAG (M2) immunocapture of APE1-FLAG from whole-cell, nuclear and cytoplasmic extracts of a HeLa clone; SDS-PAGE, in-gel trypsin digestion, nanoLC-ESI-Q-Orbitrap-MS/MS; hits filtered against empty-vector clone (SCR) and resin without antibody (res)

Substance	binding
YB1 (Y-Box binding protein 1, coded by YBX1) (from UniProt P67809 1-324)	binds
XRCC1 (from UniProt P18887 1-633) (other; other documents disagree on this pair)	binds
hnRNPK (heterogeneous nuclear ribonucleoprotein K) (from UniProt P61978 1-463)	binds
FEN1 (from UniProt P39748 1-380)	binds
PABPC1 (from UniProt P11940 1-636)	binds
nucleophosmin 1 (NPM1) (from UniProt P06748 1-294)	binds
